Laboratory results taken from the supplement of paper PMC10470496.
Where a name gives a salt, the structure may show the parent alone. The list shows a part of the results. Repeats are few or missing, and single values can be far off.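 The strains were three CDC resistance-bank clinical C. auris isolates from clades III, IV and I, cultured in RPMI-1640 at 35°C. Growth was background-corrected OD600 versus vehicle-only wells on the same plate. A hit needed >50% inhibition in two or more strains plus a plate-corrected B-score exceeding 0.1.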

Assays:
Assay in all cases: growth relative to vehicle control (OD600 ratio) (fraction); higher = less inhibition
Conditions in all cases: 24 h
C. auris AR-384 = test system: C. auris AR-384
C. auris AR-386 = test system: C. auris AR-386
C. auris AR-387 = test system: C. auris AR-387

SMILES | growth (C. auris AR-384; 1 µM) | growth (C. auris AR-384; 10 µM) | growth (C. auris AR-386; 1 µM) | growth (C. auris AR-386; 10 µM) | growth (C. auris AR-387; 1 µM) | growth (C. auris AR-387; 10 µM)
C[C@H](CCC(=O)O)[C@H]1CC[C@H]2[C@@H]3C(=O)C[C@@H]4CC(=O)CC[C@]4(C)[C@H]3CC(=O)[C@]12C [Dehydrocholic acid] | 0.85 | 0.83 | 0.92 | 0.91 | 0.79 | 0.55
Cc1onc(-c2ccccc2)c1C(=O)N[C@@H]1C(=O)N2[C@@H]1SC(C)(C)[C@@H]2C(=O)O [Oxacillin sodium monohydrate] | 1.33 | 1.39 | 1.11 | 0.82 | 0.84 | 1.24
N#C[C@@H]1CCCN1C(=O)CNC12CC3CC(CC(O)(C3)C1)C2 [Vildagliptin (LAF-237)] | 1 | 0.81 | 1.08 | 1.02 | 0.92 | 0.9
Oc1c(I)cc(I)c2cccnc12 [Diiodohydroxyquinoline] | 1.03 | 0.78 | 0.64 | 0.61 | 0.75 | 1.19
CN(C)CCCOc1nn(Cc2ccccc2)c2ccccc12 [Benzydamine HCl] | 0.81 | 0.85 | 0.94 | 1.03 | 0.64 | 0.74
Cc1nnc(SCC2=C(C(=O)O)N3C(=O)[C@@H](NC(=O)Cn4cnnn4)[C@H]3SC2)s1 [Cefazolin Sodium] | 1.21 | 1.21 | 1.38 | 1.35 | 1.52 | 1.35
CC(C)Nc1cc(-c2c[nH]c(C(=O)N[C@H](CO)c3cccc(Cl)c3)c2)c(Cl)cn1 | 0.95 | 0.97 | 0.67 | 0.65 | 0.81 | 0.76
CC[C@H](Nc1ncnc2[nH]cnc12)c1nc2cccc(F)c2c(=O)n1-c1ccccc1 [Idelalisib (CAL-101, GS-1101)] | 0.74 | 0.79 | 0.76 | 1.3 | 0.7 | 0.72
COc1cc(C(C)=O)ccc1OCCCN1CCC(c2noc3cc(F)ccc23)CC1 [Iloperidone] | 1.04 | 0.74 | 0.64 | 0.72 | 0.8 | 0.95
Nc1ccc(C(=O)NCC(=O)O)cc1 [Sodium 4-aminohippurate Hydrate] | 1.07 | 1.07 | 1.13 | 1.14 | 0.91 | 1.24
CC(C)[N+]1(C)[C@@H]2CC[C@H]1C[C@@H](OC(=O)C(CO)c1ccccc1)C2 (stereo partly specified) [Ipratropium Bromide] | 0.79 | 1.33 | 1.35 | 1.21 | 1.55 | 1.41
CCOc1ccc(C[C@H]2NC(=O)CCSSC[C@@H](C(=O)N3CCC[C@H]3C(=O)N[C@@H](CCCN)C(=O)NCC(N)=O)NC(=O)[C@H](CC(N)=O)NC(=O)[C@H]([C@@H](C)O)NC(=O)[C@H]([C@@H](C)CC)NC2=O)cc1 [Atosiban Acetate] | 0.52 | 0.47 | 0.48 | 0.83 | 0.69 | 0.63
CC[C@H]1OC(=O)[C@H](C)[C@@H](O[C@H]2C[C@@](C)(OC)[C@@H](O)[C@H](C)O2)[C@H](C)[C@@H](O[C@@H]2O[C@H](C)C[C@H](N(C)C)[C@H]2O)[C@](C)(O)C[C@@H](C)/C(=N\OCOCCOC)[C@H](C)[C@@H](O)[C@]1(C)O [Roxithromycin] | 1.01 | 0.84 | 0.54 | 0.62 | 0.84 | 0.76
Cc1cn(-c2cc(NC(=O)c3ccc(C)c(Nc4nccc(-c5cnccn5)n4)c3)cc(C(F)(F)F)c2)cn1 [Radotinib] | 0.89 | 1.01 | 0.89 | 0.76 | 0.8 | 0.71
Cc1cc2c(cc1S(N)(=O)=O)S(=O)(=O)CCC2 [Meticrane] | 1.19 | 1.32 | 1.08 | 1.06 | 1.2 | 1.22
C=C[C@]1(C)C[C@@H](OC(=O)CS[C@@H]2C[C@H]3CC[C@@H](C2)N3C)[C@]2(C)[C@H](C)CC[C@]3(CCC(=O)[C@H]32)[C@@H](C)[C@@H]1O [Retapamulin] | 0.87 | 0.65 | 0.75 | 0.78 | 0.8 | 0.64
OCc1ccccc1 [Benzyl alcohol] | 1.19 | 0.97 | 0.89 | 0.86 | 1.09 | 1.2
Nc1ccc(C(=O)O)c(O)c1 [Sodium 4-Aminosalicylate] | 0.97 | 0.91 | 0.89 | 0.8 | 0.9 | 1.11
CC(C)NCC(O)COc1ccc(COCCOC(C)C)cc1 (stereo unspecified) [Bisoprolol fumarate] | 0.85 | 1.14 | 1.17 | 0.58 | 0.98 | 0.67
CN(C)CCOC(c1ccc(Cl)cc1)c1ccccn1 (stereo unspecified) [CarbinoxaMine Maleate] | 1.06 | 1.12 | 1.03 | 1.09 | 0.66 | 1.28
N#CC(c1ccc(Cl)cc1)c1c(Cl)cc(-n2ncc(=O)[nH]c2=O)cc1Cl (stereo unspecified) [Diclazuril] | 0.78 | 0.74 | 0.81 | 0.94 | 1.24 | 0.87
COc1ccc(O)cc1 [Mequinol] | 1.09 | 0.78 | 0.94 | 0.97 | 0.89 | 0.88
CC(=O)OCC(CCn1cnc2cnc(N)nc21)COC(C)=O [Famciclovir] | 1.29 | 1.09 | 0.9 | 0.93 | 0.9 | 1.05

Copied from the results shown, 2 compounds:
SMILES | growth (C. auris AR-384; 1 µM) | growth (C. auris AR-384; 10 µM) | growth (C. auris AR-386; 1 µM) | growth (C. auris AR-386; 10 µM) | growth (C. auris AR-387; 1 µM) | growth (C. auris AR-387; 10 µM)
N#CC(c1ccc(Cl)cc1)c1c(Cl)cc(-n2ncc(=O)[nH]c2=O)cc1Cl (stereo unspecified) [Diclazuril] | 0.78 | 0.74 | 0.81 | 0.94 | 1.24 | 0.87
COc1ccc(O)cc1 [Mequinol] | 1.09 | 0.78 | 0.94 | 0.97 | 0.89 | 0.88

Additional compounds.

SMILES | growth (C. auris AR-384; 1 µM) | growth (C. auris AR-384; 10 µM) | growth (C. auris AR-386; 1 µM) | growth (C. auris AR-386; 10 µM) | growth (C. auris AR-387; 1 µM) | growth (C. auris AR-387; 10 µM)
Nc1nnc(-c2cccc(Cl)c2Cl)c(N)n1 [Lamotrigine] | 0.91 | 0.87 | 1.01 | 0.96 | 0.88 | 0.86
CCOc1ccccc1OCCN[C@H](C)Cc1ccc(OC)c(S(N)(=O)=O)c1 [Tamsulosin hydrochloride] | 0.79 | 0.73 | 0.85 | 0.56 | 0.75 | 0.8
N=C(N)NS(=O)(=O)c1ccc(N)cc1 [Sulfaguanidine] | 0.84 | 0.77 | 0.75 | 0.78 | 0.79 | 0.67
NC(=O)c1ccc(I)c([N+](=O)[O-])c1 [Iniparib (BSI-201)] | 0.91 | 1.05 | 0.91 | 0.59 | 0.64 | 0.69
CC(=O)NS(=O)(=O)c1ccc(N)cc1 [Sulfacetamide Sodium] | 1.39 | 1.76 | 1.18 | 1.32 | 1.25 | 1.27
Cc1cc2c(cc1CC(=O)c1sccc1S(=O)(=O)Nc1onc(C)c1Cl)OCO2 [Sitaxentan sodium] | 0.81 | 0.69 | 0.75 | 0.93 | 0.72 | 0.72
C=CC(=O)N1CCC(Oc2cc3c(Nc4ccc(Cl)c(Cl)c4F)ncnc3cc2OC)CC1 [Poziotinib (HM781-36B)] | 1.03 | 1.68 | 0.7 | 1.32 | 0.93 | 1.15
CCc1cnn2c(NCc3ccc[n+]([O-])c3)cc(N3CCCC[C@H]3CCO)nc12 | 1.03 | 0.91 | 0.63 | 1.1 | 1 | 1.13
COC(=O)CCc1ccc(OCC(O)CNC(C)C)cc1 (stereo unspecified) [Esmolol HCl] | 0.95 | 0.96 | 1.11 | 1.26 | 0.96 | 1.05
O=C(c1cc(Cc2n[nH]c(=O)c3ccccc23)ccc1F)N1CCN(C(=O)C2CC2)CC1 | 0.88 | 0.73 | 0.78 | 0.98 | 0.94 | 1.03
NC(=O)CC[C@@H](N)C(=O)O [D-Glutamine] | 1.04 | 1.09 | 0.97 | 1.2 | 1.04 | 1.05
CC(=O)O[C@H]1C[C@@H]2CC[C@@H]3[C@H](CC[C@@]4(C)[C@H]3C[C@H]([N+]3(C)CCCCC3)[C@@H]4OC(C)=O)[C@@]2(C)C[C@@H]1N1CCCCC1 [Vecuronium Bromide] | 0.61 | 1.01 | 0.96 | 0.76 | 0.81 | 0.86
CN(C)CCN1C(=O)c2cccc3cc(N)cc(c23)C1=O [Amonafide] | 0.97 | 1.4 | 1.44 | 1.03 | 1.17 | 0.99
CC[C@]1(O)C[C@@H]2CN(CCc3c([nH]c4ccccc34)[C@@](C(=O)OC)(c3cc4c(cc3OC)N(C)[C@H]3[C@@](O)(C(=O)OC)[C@H](OC(C)=O)[C@]5(CC)C=CCN6CC[C@]43[C@@H]65)C2)C1 [Vinblastine sulfate] | 1.25 | 0.96 | 1.06 | 1.2 | 1 | 1.09
CCN(CC)CC(=O)Nc1c(C)cccc1C [Lidocaine] | 0.63 | 0.6 | 0.68 | 1.02 | 0.84 | 0.75
CC(C(O)c1ccc(O)cc1)N1CCC(Cc2ccccc2)CC1 (stereo unspecified) [Ifenprodil Tartrate] | 0.89 | 0.9 | 1.08 | 1.1 | 1.11 | 1.07
C[C@]12CC[C@@H]3c4ccc(O)cc4CC[C@H]3[C@@H]1CC[C@@H]2OC(=O)CCC1CCCC1 [Estradiol Cypionate] | 1.03 | 0.9 | 0.85 | 0.92 | 0.97 | 0.7
N=C(N)N/N=C/c1c(Cl)cccc1Cl [Guanabenz Acetate] | 0.81 | 0.65 | 1 | 0.72 | 0.74 | 0.78
C#CCC(Cc1cnc2nc(N)nc(N)c2n1)c1ccc(C(=O)N[C@@H](CCC(=O)O)C(=O)O)cc1 (stereo partly specified) [Pralatrexate] | 1.02 | 1.05 | 1.18 | 1.27 | 1.08 | 1.15
CN1CCC(=C2c3ccccc3CCc3cccnc32)CC1 [Azatadine dimaleate] | 0.99 | 0.72 | 0.63 | 0.88 | 0.71 | 0.7
O=S(=O)(O)CCS [Mesna] | 1.02 | 0.83 | 0.69 | 0.85 | 1.25 | 0.85
CN1CCN(c2ccc(C(=O)Nc3n[nH]c4ccc(Cc5cc(F)cc(F)c5)cc34)c(NC3CCOCC3)c2)CC1 [Entrectinib (RXDX-101)] | 0.95 | 0.93 | 0.87 | 1.08 | 0.78 | 0.83
CNC(=O)c1cc(Oc2ccc(NC(=O)Nc3ccc(Cl)c(C(F)(F)F)c3)cc2)ccn1 [Sorafenib] | 1.31 | 1.21 | 1.01 | 1.13 | 1.17 | 1.21
